# These are yes or no findings as the source states them, for the method shown. Binding seen in cells or lysates may run through a third protein.
# Chains of the proteins cited; added tags and fusions are not shown.
# UniProt Q13887: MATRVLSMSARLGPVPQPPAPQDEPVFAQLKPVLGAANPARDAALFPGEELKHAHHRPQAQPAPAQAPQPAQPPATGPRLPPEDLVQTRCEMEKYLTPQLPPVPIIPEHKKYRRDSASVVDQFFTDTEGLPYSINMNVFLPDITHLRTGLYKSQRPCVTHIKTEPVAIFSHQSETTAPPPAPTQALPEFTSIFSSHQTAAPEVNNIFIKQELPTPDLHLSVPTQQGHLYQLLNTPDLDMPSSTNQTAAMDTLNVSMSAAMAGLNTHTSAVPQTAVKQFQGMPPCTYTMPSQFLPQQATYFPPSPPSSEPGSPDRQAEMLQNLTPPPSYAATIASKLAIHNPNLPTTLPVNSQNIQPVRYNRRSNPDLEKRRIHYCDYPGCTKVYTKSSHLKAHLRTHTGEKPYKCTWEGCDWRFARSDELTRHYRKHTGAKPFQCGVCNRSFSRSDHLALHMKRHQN
# UniProt P43694: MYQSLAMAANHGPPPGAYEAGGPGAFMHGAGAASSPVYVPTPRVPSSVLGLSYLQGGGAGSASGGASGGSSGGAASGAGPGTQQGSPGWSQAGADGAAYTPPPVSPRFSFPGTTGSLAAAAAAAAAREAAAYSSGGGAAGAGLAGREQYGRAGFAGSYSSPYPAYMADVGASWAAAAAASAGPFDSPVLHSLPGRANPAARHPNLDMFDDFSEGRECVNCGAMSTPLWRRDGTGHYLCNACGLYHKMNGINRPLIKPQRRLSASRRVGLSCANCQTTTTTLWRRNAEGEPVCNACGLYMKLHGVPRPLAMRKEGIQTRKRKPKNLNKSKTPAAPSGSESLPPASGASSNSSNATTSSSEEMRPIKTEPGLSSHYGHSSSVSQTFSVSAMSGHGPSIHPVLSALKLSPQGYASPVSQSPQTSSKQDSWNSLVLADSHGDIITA
# UniProt Q92908: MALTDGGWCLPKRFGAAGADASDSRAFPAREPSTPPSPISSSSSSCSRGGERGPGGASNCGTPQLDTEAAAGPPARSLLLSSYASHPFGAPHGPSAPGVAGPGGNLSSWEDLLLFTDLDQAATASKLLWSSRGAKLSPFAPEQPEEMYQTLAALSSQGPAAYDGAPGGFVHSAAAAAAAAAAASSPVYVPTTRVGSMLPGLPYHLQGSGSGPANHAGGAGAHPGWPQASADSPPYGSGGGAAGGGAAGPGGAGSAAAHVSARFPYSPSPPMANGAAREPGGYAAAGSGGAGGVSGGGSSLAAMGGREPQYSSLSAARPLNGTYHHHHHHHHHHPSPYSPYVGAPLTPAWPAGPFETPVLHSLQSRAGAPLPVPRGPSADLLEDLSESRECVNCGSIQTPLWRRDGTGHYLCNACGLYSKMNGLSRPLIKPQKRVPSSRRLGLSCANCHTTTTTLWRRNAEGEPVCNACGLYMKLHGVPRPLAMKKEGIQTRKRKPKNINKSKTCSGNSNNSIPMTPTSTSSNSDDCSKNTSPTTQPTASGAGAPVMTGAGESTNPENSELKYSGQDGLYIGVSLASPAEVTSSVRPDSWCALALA
# Assays:
# Test in all cases: co-IP
# [1] = target: KLF5 (human (endogenous in Eso26)) (UniProt Q13887)
# [2] = target: GATA4 (human (endogenous in Eso26)) (UniProt P43694)
# [3] = target: GATA6 (human (endogenous in Eso26)), Q92908; conditions: remark: other sources report otherwise
# [4] = target: GATA6 (human (endogenous in Eso26)) (UniProt Q92908)
binding [1],binding [2],binding [3],binding [4],Binder
no binding,no binding,,,"HNF4A (protein, UniProt P41235 1-474) MRLSKTLVDMDMADYSAALDPAYTTLEFENVQVLTMGNDTSPSEGTNLNAPNSLGVSALCAICGDRATGKHYGASSCDGCKGFFRRSVRKNHMYSCRFSRQCVVDKDKRNQCRYCRLKKCFRAGMKKEAVQNERDRISTRRSSYEDSSLPSINALLQAEVLSRQITSPVSGINGDIRAKKIASIADVCESMKEQLLVLVEWAKYIPAFCELPLDDQVALLRAHAGEHLLLGATKRSMVFKDVLLLGNDYIVPRHCPELAEMSRVSIRILDELVLPFQELQIDDNEYAYLKAIIFFDPDAKGLSDPGKIKRLRSQVQVSLEDYINDRQYDSRGRFGELLLLLPTLQSITWQMIEQIQFIKLFGMAKIDNLLQEMLLGGSPSDAPHAHHPLHPHLMQEHMGTNVIVANTMPTHLSNGQMCEWPRPRGQAATPETPQPSPPGGSGSEPYKLLPGAVATIVKPLSAIPQPTITKQEVI"
,,no binding,,"HNF4A, P41235 1-474 (protein) MRLSKTLVDMDMADYSAALDPAYTTLEFENVQVLTMGNDTSPSEGTNLNAPNSLGVSALCAICGDRATGKHYGASSCDGCKGFFRRSVRKNHMYSCRFSRQCVVDKDKRNQCRYCRLKKCFRAGMKKEAVQNERDRISTRRSSYEDSSLPSINALLQAEVLSRQITSPVSGINGDIRAKKIASIADVCESMKEQLLVLVEWAKYIPAFCELPLDDQVALLRAHAGEHLLLGATKRSMVFKDVLLLGNDYIVPRHCPELAEMSRVSIRILDELVLPFQELQIDDNEYAYLKAIIFFDPDAKGLSDPGKIKRLRSQVQVSLEDYINDRQYDSRGRFGELLLLLPTLQSITWQMIEQIQFIKLFGMAKIDNLLQEMLLGGSPSDAPHAHHPLHPHLMQEHMGTNVIVANTMPTHLSNGQMCEWPRPRGQAATPETPQPSPPGGSGSEPYKLLPGAVATIVKPLSAIPQPTITKQEVI"
no binding,no binding,,no binding,"ELF3 (protein, UniProt P78545 1-371) MAATCEISNIFSNYFSAMYSSEDSTLASVPPAATFGADDLVLTLSNPQMSLEGTEKASWLGEQPQFWSKTQVLDWISYQVEKNKYDASAIDFSRCDMDGATLCNCALEELRLVFGPLGDQLHAQLRDLTSSSSDELSWIIELLEKDGMAFQEALDPGPFDQGSPFAQELLDDGQQASPYHPGSCGAGAPSPGSSDVSTAGTGASRSSHSSDSGGSDVDLDPTDGKLFPSDGFRDCKKGDPKHGKRKRGRPRKLSKEYWDCLEGKKSKHAPRGTHLWEFIRDILIHPELNEGLMKWENRHEGVFKFLRSEAVAQLWGQKKKNSNMTYEKLSRAMRYYYKREILERVDGRRLVYKFGKNSSGWKEEEVLQSRN"

# Source: publication doi:10.1101/812149
